Measurements published in publication PMC12677461.

Chains of the proteins cited; added tags and fusions are not shown.
UniProt P18872: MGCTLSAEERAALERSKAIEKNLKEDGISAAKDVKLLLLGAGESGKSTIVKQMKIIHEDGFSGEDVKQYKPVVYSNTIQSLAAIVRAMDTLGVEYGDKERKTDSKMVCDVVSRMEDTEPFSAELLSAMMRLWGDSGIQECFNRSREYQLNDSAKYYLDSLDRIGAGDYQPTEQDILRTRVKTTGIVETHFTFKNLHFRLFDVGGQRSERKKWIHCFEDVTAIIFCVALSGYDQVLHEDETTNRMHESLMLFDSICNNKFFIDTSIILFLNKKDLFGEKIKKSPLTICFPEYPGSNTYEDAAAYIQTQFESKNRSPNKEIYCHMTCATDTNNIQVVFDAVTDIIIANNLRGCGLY

Molecular target: Gαo, alpha subunit of the heterotrimeric G protein Go (native, mouse brain) (mouse (endogenous in BALB/c mouse brain)) (UniProt P18872)
Assay: affinity purification with mass spectrometry; anti-Gαo (sc-13532) immunoprecipitate from mouse brain lysate with 100 µM GTPγS; in-gel trypsin digest, LC-MS/MS, Mascot/Scaffold

binding: binds
B1: GPRIN-1 (G protein-regulated inducer of neurite outgrowth 1) (protein, UniProt Q3UNH4 1-932)
chain: MRDCCSSPKAIPAPPRHALDQSLGMDPRHTSSSGAAEGASCSERPAGSLACPSPNCSPLPETPRAHGALTSDNSGTTLFGKPEPMSSAEATPTASEIRNPVFSGKMDGNSLKQADSTSTRKEEAGSLRNEESMLKGKAEPMIYGKGEPGTVGRVDCTASGAENSGSLGKVDMPCSSKVDIVSPGGDNAGSLRKVETISSGKMDPKTENVMHSRRERPGSTGEGDLVSLRENDMKPPDNTDSASTKKTDPEFSGKLTPGSSGKTELVSSVTVAPVTSENVNPVCSGGAGPAAVGNSETLSSVKKDPQLLGKKEAVSSGEGGSVSVRMAETVSARQPEGMFPAKTDSTSSNSTGPSGRADPVSLRNSELVSPVKPERLSSGQAERVSLVKTETLSSGKEDPRSSRRVDHTTVTGNMQTSQKGNPESSGKTDLGSSSSGDTRSLGTWGSLSAAKAEVTEGKGDPQPWKKASLPASEKTDPLASSKAGSASQGKAETVSPGEVDAMTLGKTVPTSSGKTALVSPGKVDLMTSERAEGIPELQASEKGNPVNSTRVDTGATGSTEPKSGVKVITQIPGATSPGKVETPSLQKEQPQLSEKTDPSRKVDPPTTVEPVSLGKADSASPSPRKAESQTSAKTVPQAPDKATSSLRQSDGTPYSSAQPQRDTRSIGSLPEREPSASTSQKDLAAAAAQKSPSAEAAAPPPGPRTRDNFTKAPSWDAGAPPPREDAGTQAGAQACVSVAVSPMSPQDGAGGPAFSFQAAPRAPSPAPRPPSRRDAGLQVSLGAAETRSVATGPMTPQAAAPPAVPPVFPEVRVRPGSVLAAALAPQEATEPVRDVSWDEKGMTWEVYGASMEVEVLGMAIQKHLERQIEEHGRQGAPAPAPPPAVRAGPGRAGSVRTAPAEGAAKRPPGLFRALLQSVRRPRCCSRAGPTAE

Results are given in words; binding and its absence hold for the method and conditions named. Binding seen in cells or lysates may run through a third protein. Here binding means that the protein was enriched with, or labelled near, the bait; the list need not be complete.
